The source of these data is patent US20190310259A1.

Sequences of proteins named here, by UniProt entry; tags and fusion partners are left off. A change or cut given only in a name is not applied to a line headed by its entry.
UniProt Q00987: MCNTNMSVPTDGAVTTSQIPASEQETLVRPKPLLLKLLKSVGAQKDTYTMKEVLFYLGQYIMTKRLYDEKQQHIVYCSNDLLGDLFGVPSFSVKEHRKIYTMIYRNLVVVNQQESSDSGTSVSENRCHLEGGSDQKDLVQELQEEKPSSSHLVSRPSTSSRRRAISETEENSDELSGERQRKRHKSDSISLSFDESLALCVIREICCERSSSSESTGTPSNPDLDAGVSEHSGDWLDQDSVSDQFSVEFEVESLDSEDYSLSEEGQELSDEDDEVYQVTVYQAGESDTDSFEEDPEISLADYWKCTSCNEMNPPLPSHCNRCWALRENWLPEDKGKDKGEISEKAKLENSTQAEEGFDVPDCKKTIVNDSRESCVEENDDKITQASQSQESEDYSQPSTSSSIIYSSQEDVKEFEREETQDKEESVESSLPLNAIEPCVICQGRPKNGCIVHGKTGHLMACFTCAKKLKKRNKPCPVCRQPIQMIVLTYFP
UniProt Q9NR12: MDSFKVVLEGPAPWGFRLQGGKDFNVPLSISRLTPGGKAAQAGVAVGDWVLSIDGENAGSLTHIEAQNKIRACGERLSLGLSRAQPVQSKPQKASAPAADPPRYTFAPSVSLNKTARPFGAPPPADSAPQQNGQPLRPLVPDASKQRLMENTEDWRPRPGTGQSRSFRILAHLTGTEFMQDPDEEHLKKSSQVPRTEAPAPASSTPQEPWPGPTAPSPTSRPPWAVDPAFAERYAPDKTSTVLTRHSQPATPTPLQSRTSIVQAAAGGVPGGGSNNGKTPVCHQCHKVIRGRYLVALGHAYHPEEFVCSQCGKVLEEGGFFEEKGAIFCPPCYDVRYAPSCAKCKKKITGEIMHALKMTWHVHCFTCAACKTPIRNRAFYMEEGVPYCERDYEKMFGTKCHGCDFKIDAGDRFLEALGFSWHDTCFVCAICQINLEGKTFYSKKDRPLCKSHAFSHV

These are yes or no findings as the source states them, for the method shown. Binding seen in cells or lysates may run through a third protein. Some entries that bind do so weakly or less than the wild type.

The target of assay [1] is MDM2 (UniProt Q00987). Kind of assay: co-immunoprecipitation from serum-starved responder cells (FIG. 13D).
For assay [2], the target named is MDM2 (UniProt Q00987). The experiment in a line: co-immunoprecipitation from serum-starved (0.5% FBS) responder cells.

In the case of “Enigma (PDZ And LIM Domain 7, PDLIM7) (from UniProt Q9NR12 1-457)”, the binding result with MDM2 [1] and in the assay with MDM2 [2] was “binds” in each case.
